Source: paper PMC2702278
Results are given in words; binding and its absence hold for the method and conditions named. In cells and extracts the contact can be indirect. These calls come from enrichment with a bait or labelling near it, and not all partners need be listed.

Amino acid sequences for entries named in this document (tags omitted).
UniProt O43426: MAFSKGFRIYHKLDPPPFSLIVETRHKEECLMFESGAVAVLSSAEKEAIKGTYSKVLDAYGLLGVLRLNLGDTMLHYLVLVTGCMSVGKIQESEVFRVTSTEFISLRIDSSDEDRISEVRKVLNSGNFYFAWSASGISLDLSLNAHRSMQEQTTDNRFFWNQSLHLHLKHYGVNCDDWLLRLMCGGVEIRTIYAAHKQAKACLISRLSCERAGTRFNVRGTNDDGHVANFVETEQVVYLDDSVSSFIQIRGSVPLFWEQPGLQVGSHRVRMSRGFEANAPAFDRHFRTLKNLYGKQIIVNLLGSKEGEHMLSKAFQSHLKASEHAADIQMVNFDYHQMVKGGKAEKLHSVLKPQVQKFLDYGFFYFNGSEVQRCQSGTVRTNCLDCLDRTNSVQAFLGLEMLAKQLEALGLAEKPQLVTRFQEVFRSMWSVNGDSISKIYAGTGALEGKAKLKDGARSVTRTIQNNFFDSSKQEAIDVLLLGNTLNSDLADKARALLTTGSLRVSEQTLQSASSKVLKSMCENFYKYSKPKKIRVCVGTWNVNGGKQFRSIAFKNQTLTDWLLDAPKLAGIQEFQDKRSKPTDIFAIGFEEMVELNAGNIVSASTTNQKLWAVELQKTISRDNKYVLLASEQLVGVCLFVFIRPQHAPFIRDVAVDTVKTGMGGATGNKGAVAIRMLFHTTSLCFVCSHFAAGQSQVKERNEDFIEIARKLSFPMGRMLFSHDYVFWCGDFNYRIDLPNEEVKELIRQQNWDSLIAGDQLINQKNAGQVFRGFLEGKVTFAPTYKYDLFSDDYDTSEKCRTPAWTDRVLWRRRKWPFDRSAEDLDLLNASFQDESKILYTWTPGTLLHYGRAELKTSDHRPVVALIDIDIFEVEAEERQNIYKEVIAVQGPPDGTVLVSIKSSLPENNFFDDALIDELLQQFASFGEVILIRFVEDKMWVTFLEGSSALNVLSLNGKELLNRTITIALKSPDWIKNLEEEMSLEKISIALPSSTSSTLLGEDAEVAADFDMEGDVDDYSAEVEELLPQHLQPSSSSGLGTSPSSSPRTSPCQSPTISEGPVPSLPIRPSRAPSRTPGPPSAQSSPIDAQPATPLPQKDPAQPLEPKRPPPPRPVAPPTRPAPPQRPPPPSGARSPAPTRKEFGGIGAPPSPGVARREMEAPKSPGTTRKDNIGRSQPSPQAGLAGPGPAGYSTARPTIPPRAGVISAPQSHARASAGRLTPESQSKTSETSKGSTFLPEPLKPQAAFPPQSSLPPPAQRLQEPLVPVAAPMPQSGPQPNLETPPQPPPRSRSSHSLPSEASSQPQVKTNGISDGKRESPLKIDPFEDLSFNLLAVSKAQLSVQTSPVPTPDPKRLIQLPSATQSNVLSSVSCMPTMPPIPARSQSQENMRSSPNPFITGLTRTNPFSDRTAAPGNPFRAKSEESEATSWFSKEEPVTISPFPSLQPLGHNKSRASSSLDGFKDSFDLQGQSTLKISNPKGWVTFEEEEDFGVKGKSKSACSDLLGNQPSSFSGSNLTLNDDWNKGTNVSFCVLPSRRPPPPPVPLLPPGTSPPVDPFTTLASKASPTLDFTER
UniProt Q9Y2Y9: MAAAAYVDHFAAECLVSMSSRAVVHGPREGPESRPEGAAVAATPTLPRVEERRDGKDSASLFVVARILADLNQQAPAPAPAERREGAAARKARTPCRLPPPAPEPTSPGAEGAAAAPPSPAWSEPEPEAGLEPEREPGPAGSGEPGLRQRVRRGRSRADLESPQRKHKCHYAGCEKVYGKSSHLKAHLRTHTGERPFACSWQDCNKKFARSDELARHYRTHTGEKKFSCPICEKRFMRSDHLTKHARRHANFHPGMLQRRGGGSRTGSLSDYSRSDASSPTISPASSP
UniProt Q9UJX4: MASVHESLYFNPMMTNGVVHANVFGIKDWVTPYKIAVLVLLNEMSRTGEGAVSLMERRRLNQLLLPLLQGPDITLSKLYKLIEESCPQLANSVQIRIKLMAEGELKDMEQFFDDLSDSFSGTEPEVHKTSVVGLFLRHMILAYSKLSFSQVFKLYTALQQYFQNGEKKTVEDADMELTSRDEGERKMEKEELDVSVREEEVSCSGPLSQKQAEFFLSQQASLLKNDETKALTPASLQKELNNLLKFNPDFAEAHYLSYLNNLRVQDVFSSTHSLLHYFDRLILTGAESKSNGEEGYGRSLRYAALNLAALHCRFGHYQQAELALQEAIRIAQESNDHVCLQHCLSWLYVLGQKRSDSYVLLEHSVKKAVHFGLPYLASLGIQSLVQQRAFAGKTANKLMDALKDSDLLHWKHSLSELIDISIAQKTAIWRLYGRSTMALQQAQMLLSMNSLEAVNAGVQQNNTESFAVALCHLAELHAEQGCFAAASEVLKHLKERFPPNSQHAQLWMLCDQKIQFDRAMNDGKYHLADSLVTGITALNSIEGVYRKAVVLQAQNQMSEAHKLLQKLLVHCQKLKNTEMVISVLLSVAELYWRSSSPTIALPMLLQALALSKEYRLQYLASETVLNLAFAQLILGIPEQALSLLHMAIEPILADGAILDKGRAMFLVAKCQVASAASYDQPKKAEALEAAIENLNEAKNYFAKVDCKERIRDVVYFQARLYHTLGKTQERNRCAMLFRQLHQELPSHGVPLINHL

Target: GST-fusion SH3C domain of Ruk/CIN85 (UniProt Q96B97)
Assay: affinity purification with mass spectrometry; GST-fusion SH3 domain (about 10 μg on 40 μl Glutathione Sepharose 4B) incubated 4 h at 4°C with HeLa lysate pre-cleared on GST beads; 20 mM Tris pH 7.5, 150 mM NaCl, 5 mM EDTA, 5% glycerol, 0.5% Triton X-100 (washes 0.1%); SDS-PAGE, in-gel trypsin digestion, LC-MS/MS; hits also found with GST alone removed; only the target purified

Molecule | binding
hnRNPK (from UniProt P61978 1-463) | binds
Synaptojanin 1 (from UniProt O43426 1-1573) | binds
KLF13 (from UniProt Q9Y2Y9 1-288) | binds
APC5 (from UniProt Q9UJX4 1-755) | binds
Dystroglycan 1 (protein, UniProt Q14118 30-895) HWPSEPSEAVRDWENQLEASMHSVLSDLHEAVPTVVGIPDGTAVVGRSFRVTIPTDLIASSGDIIKVSAAGKEALPSWLHWDSQSHTLEGLPLDTDKGVHYISVSATRLGANGSHIPQTSSVFSIEVYPEDHSELQSVRTASPDPGEVVSSACAADEPVTVLTVILDADLTKMTPKQRIDLLHRMRSFSEVELHNMKLVPVVNNRLFDMSAFMAGPGNAKKVVENGALLSWKLGCSLNQNSVPDIHGVEAPAREGAMSAQLGYPVVGWHIANKKPPLPKRVRRQIHATPTPVTAIGPPTTAIQEPPSRIVPTPTSPAIAPPTETMAPPVRDPVPGKPTVTIRTRGAIIQTPTLGPIQPTRVSEAGTTVPGQIRPTMTIPGYVEPTAVATPPTTTTKKPRVSTPKPATPSTDSTTTTTRRPTKKPRTPRPVPRVTTKVSITRLETASPPTRIRTTTSGVPRGGEPNQRPELKNHIDRVDAWVGTYFEVKIPSDTFYDHEDTTTDKLKLTLKLREQQLVGEKSWVQFNSNSQLMYGLPDSSHVGKHEYFMHATDKGGLSAVDAFEIHVHRRPQGDRAPARFKAKFVGDPALVLNDIHKKIALVKKLAFAFGDRNCSTITLQNITRGSIVVEWTNNTLPLEPCPKEQIAGLSRRIAEDDGKPRPAFSNALEPDFKATSITVTGSGSCRHLQFIPVVPPRRVPSEAPPTEVPDRDPEKSSEDDVYLHTVIPAVVVAAILLIAGIIAMICYRKKRKGKLTLEDQATFIKKGVPIIFADELDDSKPPPSSSMPLILQEEKAPLPPPEYPNQSVPETTPLNQDTMGEYTPLRDEDPNAPPYQPPPPFTAPMEGKGSRPKNMTPYRSPPPYVPP | binds
Dab2 (protein, UniProt P98082 1-770) MSNEVETSATNGQPDQQAAPKAPSKKEKKKGPEKTDEYLLARFKGDGVKYKAKLIGIDDVPDARGDKMSQDSMMKLKGMAAAGRSQGQHKQRIWVNISLSGIKIIDEKTGVIEHEHPVNKISFIARDVTDNRAFGYVCGGEGQHQFFAIKTGQQAEPLVVDLKDLFQVIYNVKKKEEEKKKIEEASKAVENGSEALMILDDQTNKLKSGVDQMDLFGDMSTPPDLNSPTESKDILLVDLNSEIDTNQNSLRENPFLTNGITSCSLPRPTPQASFLPENAFSANLNFFPTPNPDPFRDDPFTQPDQSTPSSFDSLKSPDQKKENSSSSSTPLSNGPLNGDVDYFGQQFDQISNRTGKQEAQAGPWPFSSSQTQPAVRTQNGVSEREQNGFSVKSSPNPFVGSPPKGLSIQNGVKQDLESSVQSSPHDSIAIIPPPQSTKPGRGRRTAKSSANDLLASDIFAPPVSEPSGQASPTGQPTALQPNPLDLFKTSAPAPVGPLVGLGGVTVTLPQAGPWNTASLVFNQSPSMAPGAMMGGQPSGFSQPVIFGTSPAVSGWNQPSPFAASTPPPVPVVWGPSASVAPNAWSTTSPLGNPFQSNIFPAPAVSTQPPSMHSSLLVTPPQPPPRAGPPKDISSDAFTALDPLGDKEIKDVKEMFKDFQLRQPPAVPARKGEQTSSGTLSAFASYFNSKVGIPQENADHDDFDANQLLNKINEPPKPAPRQVSLPVTKSTDNAFENPFFKDSFGSSQASVASSQPVSSEMYRDPFGNPFA | binds
SHCBP1 (protein, UniProt Q8NEM2 1-672) MADGSLTGGGLEAAAMAPERMGWAVEQELASLEKGLFQDEDSCSDCSYRDKPGSSLQSFMPEGKTFFPEIFQTNQLLFYERFRAYQDYILADCKASEVQEFTAEFLEKVLEPSGWRAVWHTNVFKVLVEITDVDFAALKAVVRLAEPYLCDSQVSTFTMECMKELLDLKEHRLPLQELWVVFDDSGVFDQTALAIEHVRFFYQNIWRSWDEEEEDEYDYFVRCVEPRLRLHYDILEDRVPSGLIVDYHNLLSQCEESYRKFLNLRSSLSNCNSDSEQENISMVEGLKLYSEMEQLKQKLKLIENPLLRYVFGYQKNSNIQAKGVRSSGQKITHVVSSTMMAGLLRSLLTDRLCQEPGEEEREIQFHSDPLSAINACFEGDTVIVCPGHYVVHGTFSIADSIELEGYGLPDDIVIEKRGKGDTFVDCTGADIKISGIKFVQHDAVEGILIVHRGKTTLENCVLQCETTGVTVRTSAEFLMKNSDLYGAKGAGIEIYPGSQCTLSDNGIHHCKEGILIKDFLDEHYDIPKISMVNNIIHNNEGYGVVLVKPTIFSDLQENAEDGTEENKALKIQTSGEPDVAERVDLEELIECATGKMELCARTDPSEQVEGNCEIVNELIAASTQKGQIKKKRLSELGITQADDNLMSQEMFVGIVGNQFKWNGKGSFGTFLF | binds
Atherin (protein, UniProt Q6SPF0 1-538) MAGPPALPPPETAAAATTAAAASSSAASPHYQEWILDTIDSLRSRKARPDLERICRMVRRRHGPEPERTRAELEKLIQQRAVLRVSYKGSISYRNAARVQPPRRGATPPAPPRAPRGAPAAAAAAAPPPTPAPPPPPAPVAAAAPARAPRAAAAAATAPPSPGPAQPGPRAQRAAPLAAPPPAPAAPPAVAPPAGPRRAPPPAVAAREPPLPPPPQPPAPPQQQQPPPPQPQPPPEGGAVRAGGAARPVSLREVVRYLGGSGGAGGRLTRGRVQGLLEEEAAARGRLERTRLGALALPRGDRPGRAPPAASARPSRSKRGGEERVLEKEEEEDDDEDEDEEDDVSEGSEVPESDRPAGAQHHQLNGERGPQSAKERVKEWTPCGPHQGQDEGRGPAPGSGTRQVFSMAAMNKEGGTASVATGPDSPSPVPLPPGKPALPGADGTPFGCPPGRKEKPSDPVEWTVMDVVEYFTEAGFPEQATAFQEQEIDGKSLLLMQRTDVLTGLSIRLGPALKIYEHHIKVLQQGHFEDDDPDGFLG | binds
CIZ1 (protein, UniProt Q9ULV3 1-898) MFSQQQQQQLQQQQQQLQQLQQQQLQQQQLQQQQLLQLQQLLQQSPPQAPLPMAVSRGLPPQQPQQPLLNLQGTNSASLLNGSMLQRALLLQQLQGLDQFAMPPATYDTAGLTMPTATLGNLRGYGMASPGLAAPSLTPPQLATPNLQQFFPQATRQSLLGPPPVGVPMNPSQFNLSGRNPQKQARTSSSTTPNRKDSSSQTMPVEDKSDPPEGSEEAAEPRMDTPEDQDLPPCPEDIAKEKRTPAPEPEPCEASELPAKRLRSSEEPTEKEPPGQLQVKAQPQARMTVPKQTQTPDLLPEALEAQVLPRFQPRVLQVQAQVQSQTQPRIPSTDTQVQPKLQKQAQTQTSPEHLVLQQKQVQPQLQQEAEPQKQVQPQVQPQAHSQGPRQVQLQQEAEPLKQVQPQVQPQAHSQPPRQVQLQLQKQVQTQTYPQVHTQAQPSVQPQEHPPAQVSVQPPEQTHEQPHTQPQVSLLAPEQTPVVVHVCGLEMPPDAVEAGGGMEKTLPEPVGTQVSMEEIQNESACGLDVGECENRAREMPGVWGAGGSLKVTILQSSDSRAFSTVPLTPVPRPSDSVSSTPAATSTPSKQALQFFCYICKASCSSQQEFQDHMSEPQHQQRLGEIQHMSQACLLSLLPVPRDVLETEDEEPPPRRWCNTCQLYYMGDLIQHRRTQDHKIAKQSLRPFCTVCNRYFKTPRKFVEHVKSQGHKDKAKELKSLEKEIAGQDEDHFITVDAVGCFEGDEEEEEDDEDEEEIEVEEELCKQVRSRDISREEWKGSETYSPNTAYGVDFLVPVMGYICRICHKFYHSNSGAQLSHCKSLGHFENLQKYKAAKNPSPTTRPVSRRCAINARNALTALFTSSGRPPSQPNTQDKTPSKVTARPSQPPLPRRSTRLKT | binds
MgcRacGAP (protein, UniProt Q9H0H5 1-632) MDTMMLNVRNLFEQLVRRVEILSEGNEVQFIQLAKDFEDFRKKWQRTDHELGKYKDLLMKAETERSALDVKLKHARNQVDVEIKRRQRAEADCEKLERQIQLIREMLMCDTSGSIQLSEEQKSALAFLNRGQPSSSNAGNKRLSTIDESGSILSDISFDKTDESLDWDSSLVKTFKLKKREKRRSTSRQFVDGPPGPVKKTRSIGSAVDQGNESIVAKTTVTVPNDGGPIEAVSTIETVPYWTRSRRKTGTLQPWNSDSTLNSRQLEPRTETDSVGTPQSNGGMRLHDFVSKTVIKPESCVPCGKRIKFGKLSLKCRDCRVVSHPECRDRCPLPCIPTLIGTPVKIGEGMLADFVSQTSPMIPSIVVHCVNEIEQRGLTETGLYRISGCDRTVKELKEKFLRVKTVPLLSKVDDIHAICSLLKDFLRNLKEPLLTFRLNRAFMEAAEITDEDNSIAAMYQAVGELPQANRDTLAFLMIHLQRVAQSPHTKMDVANLAKVFGPTIVAHAVPNPDPVTMLQDIKRQPKVVERLLSLPLEYWSQFMMVEQENIDPLHVIENSNAFSTPQTPDIKVSLLGPVTTPEHQLLKTPSSSSLSQRVRSTLTKNTPRFGSKSKSATNLGRQGNFFASPMLK | binds
SYDE1 (protein, UniProt Q6ZW31 1-735) MAEPLLRKTFSRLRGREKLPRKKSDAKERGHPAQRPEPSPPEPEPQAPEGSQAGAEGPSSPEASRSPARGAYLQSLEPSSRRWVLGGAKPAEDTSLGPGVPGTGEPAGEIWYNPIPEEDPRPPAPEPPGPQPGSAESEGLAPQGAAPASPPTKASRTKSPGPARRLSIKMKKLPELRRRLSLRGPRAGRERERAAPAGSVISRYHLDSSVGGPGPAAGPGGTRSPRAGYLSDGDSPERPAGPPSPTSFRPYEVGPAARAPPAALWGRLSLHLYGLGGLRPAPGATPRDLCCLLQVDGEARARTGPLRGGPDFLRLDHTFHLELEAARLLRALVLAWDPGVRRHRPCAQGTVLLPTVFRGCQAQQLAVRLEPQGLLYAKLTLSEQQEAPATAEPRVFGLPLPLLVERERPPGQVPLIIQKCVGQIERRGLRVVGLYRLCGSAAVKKELRDAFERDSAAVCLSEDLYPDINVITGILKDYLRELPTPLITQPLYKVVLEAMARDPPNRVPPTTEGTRGLLSCLPDVERATLTLLLDHLRLVSSFHAYNRMTPQNLAVCFGPVLLPARQAPTRPRARSSGPGLASAVDFKHHIEVLHYLLQSWPDPRLPRQSPDVAPYLRPKRQPPLHLPLADPEVVTRPRGRGGPESPPSNRYAGDWSVCGRDFLPCGRDFLSGPDYDHVTGSDSEDEDEEVGEPRVTGDFEDDFDAPFNPHLNLKDFDALILDLERELSKQINVCL | binds
